This is an account of results in paper PMC12221368, “Long AKAP18 isoforms anchor ubiquitin specific proteinases and coordinate calcium reuptake at the sarcoplasmic reticulum” (The Journal of Biological Chemistry, 2025).

For one assay, the target named is GFP-AKAP18γ. Kind of assay: co-IP; HEK293 cells cotransfected with GFP-AKAP18 isoforms and V5-USP4; lysis buffer 25 mM Hepes pH 7.4, 150 mM NaCl, 1% Triton X-100; rabbit anti-GFP IgG and protein A agarose, 2 h at 4 °C; anti-V5 blot; IgG controls.
Assay [1] addresses AKAP18 (endogenous, mouse heart) (mouse (endogenous in adult cardiomyocytes and heart)). Kind of assay: proximity ligation; fixed isolated mouse adult cardiomyocytes, endogenous proteins, antibody pairs (RIIα + AKAP18; USP4 + AKAP18); control with secondary antibodies alone.

Results are given in words; binding and its absence hold for the method and conditions named. In cells and extracts the contact can be indirect. Binding can be weak; no strength is given. For some assays here: Tags and fused reporters may be left off the sequences shown.

B1: V5-tagged USP4 (enzyme, UniProt Q13107 1-963, looked up)
chain: MAEGGGCRERPDAETQKSELGPLMRTTLQRGAQWYLIDSRWFKQWKKYVGFDSWDMYNVGEHNLFPGPIDNSGLFSDPESQTLKEHLIDELDYVLVPTEAWNKLLNWYGCVEGQQPIVRKVVEHGLFVKHCKVEVYLLELKLCENSDPTNVLSCHFSKADTIATIEKEMRKLFNIPAERETRLWNKYMSNTYEQLSKLDNTVQDAGLYQGQVLVIEPQNEDGTWPRQTLQSKSSTAPSRNFTTSPKSSASPYSSVSASLIANGDSTSTCGMHSSGVSRGGSGFSASYNCQEPPSSHIQPGLCGLGNLGNTCFMNSALQCLSNTAPLTDYFLKDEYEAEINRDNPLGMKGEIAEAYAELIKQMWSGRDAHVAPRMFKTQVGRFAPQFSGYQQQDSQELLAFLLDGLHEDLNRVKKKPYLELKDANGRPDAVVAKEAWENHRLRNDSVIVDTFHGLFKSTLVCPECAKVSVTFDPFCYLTLPLPLKKDRVMEVFLVPADPHCRPTQYRVTVPLMGAVSDLCEALSRLSGIAAENMVVADVYNHRFHKIFQMDEGLNHIMPRDDIFVYEVCSTSVDGSECVTLPVYFRERKSRPSSTSSASALYGQPLLLSVPKHKLTLESLYQAVCDRISRYVKQPLPDEFGSSPLEPGACNGSRNSCEGEDEEEMEHQEEGKEQLSETEGSGEDEPGNDPSETTQKKIKGQPCPKRLFTFSLVNSYGTADINSLAADGKLLKLNSRSTLAMDWDSETRRLYYDEQESEAYEKHVSMLQPQKKKKTTVALRDCIELFTTMETLGEHDPWYCPNCKKHQQATKKFDLWSLPKILVVHLKRFSYNRYWRDKLDTVVEFPIRGLNMSEFVCNLSARPYVYDLIAVSNHYGAMGVGHYTAYAKNKLNGKWYYFDDSNVSLASEDQIVTKAAYVLFYQRRDDEFYKTPSLSSSGSSDGGTRPSSSQQGFGDDEACSMDTN
For the molecule B1, in the assay with GFP-AKAP18γ, the binding entry is on record as “binds”.

B2: USP4 (endogenous, mouse) (enzyme, UniProt P35123 1-962)
chain: MAEGRGSRERPDVETQKTELGALMGTTLQRGAQWYLIDSRWFKQWKKYVGFDSWDMYNVGEHNLFPGPIDNSGLFSDPESQTLKEHLIDELDYVLVPAEAWNKLLNWYGCVEGQQPIVRKVVEHGLFVKHCKVEVYLLELKLCENSDPTNVLSCHFSKADTIATIEKEMRKLFNIPAERETRLWNKYMSNTYEQLSKLDNTIQDAGLYQGQVLVIEPQNEDGTWPRQSLQSKSSTAPSRNFTTSSKPSASPYCSVSASLIANGDSTNSSGMHSSGVSRGGSGFSASYNCQEPPSPHIQPGLCGLGNLGNTCFMNSALQCLSNTAPLTEYFLKDEYEAEINRDNPLGMKGEIAEAYAELIKQMWSGRDTHVAPRMFKTQVGRFAPQFSGYQQQDSQELLAFILDGLHEDLNRVKKKPYLEPKDANGRPDAVVAKEAWENHRLRNDSVIVDTFHGLFKSTLVCPECAKVSVTFDPFCYLTLPLPLKKDRIMEVFLVPADPQCRPIQYRVTVPLMGAISDLCEALSKLSGIAAENMVVTDVYNHRFHKIFQMDEGLSHITPRDDIFVYEVCNTSMDGSECITLPVYFREKKSRPSSASSGAVLYGQPLLVSVPKHKLTLESLYQAVCDRISRYIKQPLPDEFLSSPLEPGACNGSRSSYEGDEEEEMDHQEEGKEQLSEVEGSGEDDQGDDHSESAQKVKGQPRHKRLFTFSLVNSCGTADINSLATDGKLLKLNSRSTLAIDWDSETRSLYFDEQESEACEKHLSMSQPQKKKKAAVALRECIELFTTMETLGEHDPWYCPTCKKHQQATKKFDLWSLPKILVVHLKRFSYNRYWRDKLDTVVEFPVRALNMSEFVCDRSARPYVYDLIAVSNHYGAMGVGHYTAYAKNRLNGKWYYFDDSSVSLASEDQIVTKAAYVLFYQRRDDECSSTSSLGSFPGSDGGVKLSSSHQGMGDEEAYNMDTN
As for B2, the binding entry in assay [1] is reported as “binds”.
